According to the supplement of paper PMC10849652:
The other results are listed elsewhere or left out.

Protein sequences, listed by entry. Tags and fused reporters are not part of them. Lines headed by an entry give the natural chain unless they say otherwise; changes in a name come on top.
UniProt Q5JRA6: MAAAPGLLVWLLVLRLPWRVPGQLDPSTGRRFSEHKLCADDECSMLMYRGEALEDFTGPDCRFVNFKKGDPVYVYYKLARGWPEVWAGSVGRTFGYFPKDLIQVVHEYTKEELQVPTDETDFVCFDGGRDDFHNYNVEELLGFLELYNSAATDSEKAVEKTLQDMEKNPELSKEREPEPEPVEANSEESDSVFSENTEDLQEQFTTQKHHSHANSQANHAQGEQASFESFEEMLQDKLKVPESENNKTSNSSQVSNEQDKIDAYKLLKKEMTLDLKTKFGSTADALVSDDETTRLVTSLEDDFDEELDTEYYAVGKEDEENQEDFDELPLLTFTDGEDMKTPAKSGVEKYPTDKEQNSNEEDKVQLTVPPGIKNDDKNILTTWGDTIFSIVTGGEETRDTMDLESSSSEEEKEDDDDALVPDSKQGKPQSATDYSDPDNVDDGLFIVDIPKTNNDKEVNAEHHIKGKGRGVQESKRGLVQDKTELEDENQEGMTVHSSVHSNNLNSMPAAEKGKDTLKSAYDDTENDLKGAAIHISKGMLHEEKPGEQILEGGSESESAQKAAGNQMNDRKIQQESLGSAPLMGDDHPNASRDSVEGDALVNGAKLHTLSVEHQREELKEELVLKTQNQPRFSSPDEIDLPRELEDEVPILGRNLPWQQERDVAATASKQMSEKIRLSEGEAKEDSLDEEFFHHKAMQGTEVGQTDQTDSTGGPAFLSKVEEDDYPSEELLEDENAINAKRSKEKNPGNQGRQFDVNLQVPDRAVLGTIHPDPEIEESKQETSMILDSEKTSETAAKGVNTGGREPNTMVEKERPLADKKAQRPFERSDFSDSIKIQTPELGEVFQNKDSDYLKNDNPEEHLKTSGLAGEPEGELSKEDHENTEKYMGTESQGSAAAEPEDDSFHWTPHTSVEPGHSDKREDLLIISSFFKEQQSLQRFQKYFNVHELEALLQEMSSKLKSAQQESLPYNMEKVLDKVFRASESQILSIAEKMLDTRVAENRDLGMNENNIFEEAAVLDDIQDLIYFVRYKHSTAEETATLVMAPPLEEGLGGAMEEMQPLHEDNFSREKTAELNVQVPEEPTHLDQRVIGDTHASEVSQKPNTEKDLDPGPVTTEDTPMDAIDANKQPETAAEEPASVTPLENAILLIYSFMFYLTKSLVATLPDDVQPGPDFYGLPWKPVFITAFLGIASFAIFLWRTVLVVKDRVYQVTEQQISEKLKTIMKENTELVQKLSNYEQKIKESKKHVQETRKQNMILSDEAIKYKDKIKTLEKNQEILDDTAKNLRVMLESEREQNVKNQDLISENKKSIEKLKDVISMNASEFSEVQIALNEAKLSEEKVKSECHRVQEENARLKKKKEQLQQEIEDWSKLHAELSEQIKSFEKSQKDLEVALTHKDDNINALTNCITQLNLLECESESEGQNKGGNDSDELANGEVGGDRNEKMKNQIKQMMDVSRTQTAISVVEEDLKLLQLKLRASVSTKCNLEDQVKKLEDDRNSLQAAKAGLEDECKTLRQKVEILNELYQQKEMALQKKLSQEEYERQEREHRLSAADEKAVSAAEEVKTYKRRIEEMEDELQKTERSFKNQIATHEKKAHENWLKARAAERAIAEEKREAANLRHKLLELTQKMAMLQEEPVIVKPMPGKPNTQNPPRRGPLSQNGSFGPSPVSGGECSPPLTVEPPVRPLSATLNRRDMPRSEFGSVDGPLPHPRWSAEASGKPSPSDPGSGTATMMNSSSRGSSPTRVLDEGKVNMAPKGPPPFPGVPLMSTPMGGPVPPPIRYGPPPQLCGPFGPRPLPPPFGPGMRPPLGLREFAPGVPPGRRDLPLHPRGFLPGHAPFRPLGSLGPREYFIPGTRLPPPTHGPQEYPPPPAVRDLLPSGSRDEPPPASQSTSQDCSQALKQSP
UniProt Q5TF39: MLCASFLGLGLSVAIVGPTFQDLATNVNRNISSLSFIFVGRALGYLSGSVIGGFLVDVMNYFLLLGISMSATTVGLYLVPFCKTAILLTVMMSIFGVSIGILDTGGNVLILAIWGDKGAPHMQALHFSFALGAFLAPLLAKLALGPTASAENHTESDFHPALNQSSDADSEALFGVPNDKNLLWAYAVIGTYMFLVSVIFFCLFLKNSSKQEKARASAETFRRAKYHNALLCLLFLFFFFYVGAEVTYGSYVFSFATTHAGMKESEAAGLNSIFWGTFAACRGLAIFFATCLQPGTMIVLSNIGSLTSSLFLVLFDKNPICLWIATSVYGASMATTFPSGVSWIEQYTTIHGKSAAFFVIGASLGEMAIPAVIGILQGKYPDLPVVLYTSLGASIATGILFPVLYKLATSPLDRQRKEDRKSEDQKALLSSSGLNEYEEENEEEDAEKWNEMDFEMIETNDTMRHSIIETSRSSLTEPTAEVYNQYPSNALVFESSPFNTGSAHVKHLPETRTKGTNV
UniProt P40926: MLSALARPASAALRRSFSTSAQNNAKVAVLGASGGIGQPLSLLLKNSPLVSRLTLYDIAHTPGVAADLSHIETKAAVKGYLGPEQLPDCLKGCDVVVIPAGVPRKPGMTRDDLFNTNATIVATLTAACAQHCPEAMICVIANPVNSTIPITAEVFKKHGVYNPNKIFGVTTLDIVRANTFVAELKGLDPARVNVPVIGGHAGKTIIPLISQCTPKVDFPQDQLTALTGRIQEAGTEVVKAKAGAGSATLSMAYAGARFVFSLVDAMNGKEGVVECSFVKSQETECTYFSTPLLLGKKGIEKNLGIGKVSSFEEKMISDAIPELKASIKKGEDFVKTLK
UniProt Q16626: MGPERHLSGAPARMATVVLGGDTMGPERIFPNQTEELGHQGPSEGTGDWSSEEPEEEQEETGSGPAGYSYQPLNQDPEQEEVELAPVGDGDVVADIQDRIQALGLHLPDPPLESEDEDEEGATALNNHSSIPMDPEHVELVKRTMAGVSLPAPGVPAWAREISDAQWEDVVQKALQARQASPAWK
UniProt Q14728: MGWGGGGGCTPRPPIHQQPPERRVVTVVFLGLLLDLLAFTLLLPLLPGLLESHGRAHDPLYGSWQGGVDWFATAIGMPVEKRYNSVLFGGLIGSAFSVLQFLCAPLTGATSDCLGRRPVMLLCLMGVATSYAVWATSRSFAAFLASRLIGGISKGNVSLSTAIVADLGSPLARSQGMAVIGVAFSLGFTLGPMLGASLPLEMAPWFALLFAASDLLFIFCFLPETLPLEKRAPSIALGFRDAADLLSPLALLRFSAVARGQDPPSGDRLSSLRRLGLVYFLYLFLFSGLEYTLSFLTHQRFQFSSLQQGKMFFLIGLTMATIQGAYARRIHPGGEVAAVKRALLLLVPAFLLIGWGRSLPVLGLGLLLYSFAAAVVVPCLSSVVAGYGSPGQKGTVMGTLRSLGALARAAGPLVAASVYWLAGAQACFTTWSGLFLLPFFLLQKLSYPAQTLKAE
UniProt Q9NPJ6: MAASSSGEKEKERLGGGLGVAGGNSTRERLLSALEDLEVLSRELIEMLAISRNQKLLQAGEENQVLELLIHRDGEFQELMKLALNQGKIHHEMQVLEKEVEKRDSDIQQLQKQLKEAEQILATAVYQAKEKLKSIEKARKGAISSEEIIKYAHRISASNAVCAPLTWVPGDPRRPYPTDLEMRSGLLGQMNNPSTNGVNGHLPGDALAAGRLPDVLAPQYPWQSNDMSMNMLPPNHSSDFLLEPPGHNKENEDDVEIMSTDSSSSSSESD
UniProt Q9BUE0: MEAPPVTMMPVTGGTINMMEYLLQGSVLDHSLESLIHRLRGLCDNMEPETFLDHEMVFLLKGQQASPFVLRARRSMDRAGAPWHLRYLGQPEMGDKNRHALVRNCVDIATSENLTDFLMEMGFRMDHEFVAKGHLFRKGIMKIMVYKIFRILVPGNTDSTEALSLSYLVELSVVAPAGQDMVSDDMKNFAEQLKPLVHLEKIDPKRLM
UniProt P40925: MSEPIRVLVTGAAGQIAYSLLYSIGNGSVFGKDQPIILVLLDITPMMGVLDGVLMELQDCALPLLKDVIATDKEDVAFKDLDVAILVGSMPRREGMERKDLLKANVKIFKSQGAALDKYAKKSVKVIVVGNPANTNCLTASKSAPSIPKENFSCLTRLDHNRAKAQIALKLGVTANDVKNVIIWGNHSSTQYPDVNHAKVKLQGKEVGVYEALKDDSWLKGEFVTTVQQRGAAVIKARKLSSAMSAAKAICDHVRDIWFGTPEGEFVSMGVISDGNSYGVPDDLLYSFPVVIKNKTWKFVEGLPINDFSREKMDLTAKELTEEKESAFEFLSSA
UniProt Q5SR56: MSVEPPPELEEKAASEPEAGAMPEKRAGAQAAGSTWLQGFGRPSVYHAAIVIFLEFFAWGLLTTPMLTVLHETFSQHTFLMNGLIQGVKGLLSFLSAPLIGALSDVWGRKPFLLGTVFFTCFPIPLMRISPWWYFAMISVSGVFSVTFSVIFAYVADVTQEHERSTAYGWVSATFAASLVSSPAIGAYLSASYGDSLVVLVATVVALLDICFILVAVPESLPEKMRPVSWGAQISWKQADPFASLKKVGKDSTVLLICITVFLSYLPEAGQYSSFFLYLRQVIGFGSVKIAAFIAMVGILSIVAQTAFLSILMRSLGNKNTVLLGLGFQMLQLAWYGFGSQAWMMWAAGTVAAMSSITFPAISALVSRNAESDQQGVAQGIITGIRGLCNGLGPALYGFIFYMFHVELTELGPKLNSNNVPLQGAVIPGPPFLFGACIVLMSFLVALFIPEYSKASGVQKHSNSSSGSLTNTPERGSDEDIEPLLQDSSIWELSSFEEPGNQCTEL
UniProt P10620: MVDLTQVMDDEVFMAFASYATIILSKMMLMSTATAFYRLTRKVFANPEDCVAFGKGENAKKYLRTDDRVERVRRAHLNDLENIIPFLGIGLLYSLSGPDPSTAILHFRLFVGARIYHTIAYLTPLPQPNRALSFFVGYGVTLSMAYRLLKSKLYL
UniProt A0JLT2: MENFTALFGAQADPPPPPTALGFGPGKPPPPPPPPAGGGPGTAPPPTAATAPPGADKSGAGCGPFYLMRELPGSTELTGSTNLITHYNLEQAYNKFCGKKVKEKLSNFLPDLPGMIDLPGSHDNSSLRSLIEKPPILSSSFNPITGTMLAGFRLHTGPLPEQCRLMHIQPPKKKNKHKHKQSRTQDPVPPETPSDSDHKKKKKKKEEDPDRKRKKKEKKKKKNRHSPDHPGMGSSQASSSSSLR
UniProt Q8IWA4: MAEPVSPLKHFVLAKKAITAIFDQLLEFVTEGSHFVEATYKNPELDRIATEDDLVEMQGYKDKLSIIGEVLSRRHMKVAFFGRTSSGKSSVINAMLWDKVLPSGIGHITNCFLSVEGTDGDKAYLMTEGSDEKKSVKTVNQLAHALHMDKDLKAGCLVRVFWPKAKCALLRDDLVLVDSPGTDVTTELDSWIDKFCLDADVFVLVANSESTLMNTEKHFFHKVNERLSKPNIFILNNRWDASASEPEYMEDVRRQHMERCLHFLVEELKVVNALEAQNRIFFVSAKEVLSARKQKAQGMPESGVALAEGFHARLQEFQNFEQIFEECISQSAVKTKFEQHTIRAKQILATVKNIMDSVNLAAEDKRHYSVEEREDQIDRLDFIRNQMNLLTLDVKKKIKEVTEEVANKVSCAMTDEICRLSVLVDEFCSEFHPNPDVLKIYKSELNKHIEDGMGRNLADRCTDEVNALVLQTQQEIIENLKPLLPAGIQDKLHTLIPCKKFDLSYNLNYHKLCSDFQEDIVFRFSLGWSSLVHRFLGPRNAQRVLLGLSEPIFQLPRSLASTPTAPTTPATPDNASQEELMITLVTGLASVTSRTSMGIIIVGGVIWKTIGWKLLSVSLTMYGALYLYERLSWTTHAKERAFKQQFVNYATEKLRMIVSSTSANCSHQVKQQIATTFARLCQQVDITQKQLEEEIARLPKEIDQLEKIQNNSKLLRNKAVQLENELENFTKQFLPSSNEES
UniProt Q9H7H0: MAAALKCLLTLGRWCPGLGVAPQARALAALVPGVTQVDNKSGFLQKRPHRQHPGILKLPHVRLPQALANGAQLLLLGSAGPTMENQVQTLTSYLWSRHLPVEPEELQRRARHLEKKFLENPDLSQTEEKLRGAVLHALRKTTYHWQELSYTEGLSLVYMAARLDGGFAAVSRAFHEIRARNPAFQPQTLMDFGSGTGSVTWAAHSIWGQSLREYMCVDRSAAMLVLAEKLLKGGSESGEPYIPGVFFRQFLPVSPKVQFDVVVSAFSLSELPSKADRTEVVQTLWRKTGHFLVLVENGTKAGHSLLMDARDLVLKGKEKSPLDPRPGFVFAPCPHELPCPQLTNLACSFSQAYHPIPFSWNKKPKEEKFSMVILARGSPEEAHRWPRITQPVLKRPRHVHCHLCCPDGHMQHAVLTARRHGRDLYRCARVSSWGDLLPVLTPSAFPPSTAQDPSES

Columns and labels:
Assay in all cases: log2 fold change, soluble protein after heating vs DMSO (PISA); higher = thermal stabilisation; K562 cells, 10 uM, 30 min; active = over 0.2 and 3.5 SD of the protein, either way, in both replicates (recomputed)
[1] = compound: CC[C@@H]1C(=O)N(C)c2cnc(Nc3ccc(C(=O)NC4CCN(C)CC4)cc3OC)nc2N1C1CCCC1
Method in brief: (§1)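 Values are thermal stability changes relative to control samples and are taken from duplicates. They are stated as log2 fold changes. Before quantification by TMTpro 16plex LC-MS/MS with equalised channel sums, K562 cells at 2×10^6 cells/mL were treated with 10 μM compound for 30 min, heated in aliquots for 3 min across 48°C-58°C, pooled, extracted in PBS with 0.5% NP-40 at 4°C, and centrifuged at 21,000xg for 90 min to give the soluble supernatant.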

volasertib = compound: CC[C@@H]1C(=O)N(C)c2cnc(Nc3ccc(C(=O)N[C@H]4CC[C@H](N5CCN(CC6CC6)CC5)CC4)cc3OC)nc2N1C(C)C [volasertib]
Method in brief: as §1

[2] = compound: CC[C@H](C)N1C=C(C2=C(C=C(C=C21)C3=CN=C(C=C3)N4CCNCC4)C(=O)NCC5=C(C=C(NC5=O)C)C)C
Method in brief: as §1

epoxomicin = compound: CC[C@H](C)[C@@H](C(=O)N[C@@H]([C@@H](C)O)C(=O)N[C@@H](CC(C)C)C(=O)[C@]1(CO1)C)NC(=O)[C@H]([C@@H](C)CC)N(C)C(=O)C [epoxomicin]
Method in brief: as §1

[3] = compound: CCn1c(C(=O)N(C2CC2)C2CC2)cc2c3c(ncn3C)c(Nc3cc(C)n(C)n3)nc21
Method in brief: as §1

[4] = compound: CCn1cc(-c2ccnc3[nH]c(-c4cccc(CN(C)C)c4)cc23)c(-c2ccc(NC(=O)N(C)C)cc2)n1
Method in brief: as §1

[5] = compound: CN(C)CC(=O)Nc1ccc2[nH]c(=O)c3ccccc3c2c1
Method in brief: as §1

rosiglitazone = compound: CN(CCOC1=CC=C(C=C1)C[C@H]2C(=O)NC(=O)S2)C3=CC=CC=N3 (racemic) [rosiglitazone]
Method in brief: as §1

[6] = compound: CN1C2=C(C3=C1C(=O)N(N=C3)CC4=CC(=CC=C4)N)SC(=C2)S(=O)C
Method in brief: as §1

[7] = compound: CN1CCC(CNc2ccc3ncc(-c4cccc(OC(F)(F)F)c4)n3n2)CC1
Method in brief: as §1

saracatinib = compound: CN1CCN(CCOc2cc(OC3CCOCC3)c3c(Nc4c(Cl)ccc5c4OCO5)ncnc3c2)CC1 [saracatinib]
Method in brief: as §1

sotrastaurin = compound: CN1CCN(c2nc(C3=C(c4c[nH]c5ccccc45)C(=O)NC3=O)c3ccccc3n2)CC1 [sotrastaurin]
Method in brief: as §1

alvocidib = compound: CN1CC[C@H](c2c(O)cc(O)c3c(=O)cc(-c4ccccc4Cl)oc23)[C@H](O)C1 [alvocidib]
Method in brief: as §1

Tubastatin A = compound: CN1CCc2c(c3ccccc3n2Cc2ccc(C(=O)NO)cc2)C1 [Tubastatin A]
Method in brief: as §1

[8] = compound: CNC(=O)C1=CC=CC=C1NC2=NC(=NC=C2Cl)NC3=C(C=C(C=C3)N4CCOCC4)OC
Method in brief: as §1

defactinib = compound: CNC(=O)c1ccc(Nc2ncc(C(F)(F)F)c(NCc3nccnc3N(C)S(C)(=O)=O)n2)cc1 [defactinib]
Method in brief: as §1

rucaparib = compound: CNCc1ccc(-c2[nH]c3cc(F)cc4c3c2CCNC4=O)cc1 [rucaparib]
Method in brief: as §1

[9] = compound: CNc1nc(-c2ccc3c(N)n[nH]c3c2)cc(N2C[C@@H](C(=O)NC3CCCCC3)CC[C@H]2C)n1
Method in brief: as §1

encorafenib = compound: COC(=O)N[C@@H](C)CNc1nccc(-c2cn(C(C)C)nc2-c2cc(Cl)cc(NS(C)(=O)=O)c2F)n1 [encorafenib]
Method in brief: as §1

[10] = compound: COC(=O)[C@H](CCSC)NC(=O)C1=C(C=C(C=C1)NC[C@H](CS)N)C2=CC=CC=C2
Method in brief: as §1

Measured: log2 fold change

MIA3 (UniProt Q5JRA6)
inactive: [1] -0.015 | volasertib -0.086 | [2] 0.017 | epoxomicin 0.005 | [3] -0.016 | [4] 0.07 | [5] 0.003 | rosiglitazone -0.039 | [6] 0.043 | [7] 0.019 | saracatinib -0.004 | sotrastaurin -0.06 | alvocidib 0.009 | Tubastatin A -0.015 | [8] -0.005 | defactinib -0.035 | rucaparib 0.01 | [9] -0.046 | encorafenib 0.048 | [10] 0.008

MFSD4B (UniProt Q5TF39)
inactive: [1] 0.094 | volasertib -0.075 | [2] -0.085 | epoxomicin -0.073 | [4] -0.047 | [5] -0.064 | rosiglitazone -0.027 | [6] -0.016 | [7] -0.099 | saracatinib 0.109 | sotrastaurin -0.013 | alvocidib 0.037 | Tubastatin A 0.009 | defactinib 0.12 | rucaparib -0.253 | [9] -0.135 | encorafenib 0.033 | [10] 0.028

MCM6 (UniProt Q14566)
inactive: [1] -0.003 | volasertib -0.068 | [2] 0.018 | epoxomicin 0.031 | [3] 0.003 | [4] -0.041 | [5] 0 | rosiglitazone 0.014 | [6] -0.085 | [7] -0.095 | saracatinib 0 | sotrastaurin 0.026 | alvocidib -0.125 | Tubastatin A -0.017 | [8] -0.019 | defactinib -0.1 | rucaparib -0.029 | [9] -0.028 | encorafenib 0.01 | [10] 0.008

MFAP1 (UniProt P55081)
inactive: [1] -0.03 | volasertib -0.022 | [2] -0.011 | epoxomicin 0.035 | [3] 0.017 | [4] 0.007 | [5] 0.01 | rosiglitazone -0.027 | [6] 0.024 | [7] -0.016 | saracatinib 0.017 | sotrastaurin 0.082 | alvocidib 0.013 | Tubastatin A 0.036 | [8] -0.046 | defactinib -0.092 | rucaparib -0.013 | [9] -0.09 | encorafenib 0.003 | [10] 0.018

MDH2 (UniProt P40926)
inactive: [1] -0.026 | volasertib 0.066 | [2] -0.003 | epoxomicin -0.021 | [3] 0.021 | [4] 0.016 | [5] -0.009 | rosiglitazone -0.005 | [6] -0.024 | [7] 0.05 | saracatinib 0.057 | sotrastaurin 0.037 | alvocidib -0.014 | Tubastatin A -0.01 | [8] 0.079 | defactinib -0.004 | rucaparib 0.012 | [9] -0.028 | encorafenib -0.054 | [10] 0.027

MEA1 (UniProt Q16626)
inactive: [1] -0.037 | volasertib 0.055 | [2] 0.032 | epoxomicin 0.069 | [3] 0.03 | [4] -0.086 | [5] 0.042 | rosiglitazone 0.026 | [6] -0.005 | [7] 0.064 | saracatinib 0.013 | sotrastaurin 0.115 | alvocidib -0.196 | Tubastatin A 0.182 | [8] -0.149 | defactinib -0.005 | rucaparib -0.053 | [9] -0.08 | encorafenib -0.01 | [10] -0.007

MFSD10 (UniProt Q14728)
inactive: [1] 0.093 | volasertib 0.069 | [2] -0.071 | epoxomicin -0.106 | [3] 0.025 | [4] 0.045 | [5] -0.004 | rosiglitazone 0.007 | [6] -0.205 | [7] 0.058 | saracatinib 0.072 | sotrastaurin 0.002 | alvocidib 0.036 | Tubastatin A -0.053 | [8] 0.074 | defactinib 0.005 | rucaparib -0.049 | [9] 0.027 | encorafenib 0.01 | [10] -0.082

MED4 (UniProt Q9NPJ6)
inactive: [1] 0.105 | volasertib 0.113 | [2] 0.043 | epoxomicin 0.032 | [3] -0.003 | [4] 0.023 | [5] -0.037 | rosiglitazone -0.077 | [6] -0.016 | [7] 0.022 | saracatinib 0.084 | sotrastaurin -0.082 | alvocidib -0.147 | Tubastatin A 0.021 | [8] -0.009 | defactinib -0.052 | rucaparib 0.022 | [9] -0.058 | encorafenib 0.055 | [10] 0.019

MED18 (UniProt Q9BUE0)
inactive: [1] -0.094 | volasertib -0.036 | [2] 0.063 | epoxomicin 0.028 | [3] -0.016 | [4] 0.046 | [5] 0.051 | rosiglitazone -0.008 | [6] 0.027 | [7] -0.082 | saracatinib -0.026 | sotrastaurin 0.055 | alvocidib -0.049 | Tubastatin A 0.014 | [8] -0.028 | defactinib -0.08 | rucaparib 0.039 | [9] 0.007 | encorafenib 0.009 | [10] -0.064

MDH1 isoform 3 (UniProt P40925)
inactive: [1] -0.015 | volasertib 0.023 | [2] -0.024 | epoxomicin 0.037 | [3] 0.03 | [4] -0.008 | [5] -0.013 | rosiglitazone 0.014 | [6] -0.087 | [7] -0.018 | saracatinib 0.028 | sotrastaurin 0 | alvocidib -0.009 | Tubastatin A -0.036 | [8] 0.116 | defactinib -0.02 | rucaparib -0.085 | [9] -0.016 | encorafenib -0.019 | [10] 0

MFSD14B (UniProt Q5SR56)
inactive: [1] -0.063 | volasertib -0.282 | [2] 0.041 | epoxomicin -0.017 | [3] 0.016 | [5] 0.099 | [6] -0.036 | saracatinib -0.015 | sotrastaurin 0.074 | alvocidib -0.007 | Tubastatin A 0.076 | [8] 0.036 | defactinib -0.17 | rucaparib 0.103 | [9] -0.131 | encorafenib -0.04 | [10] 0.11

MEAF6 isoform 3 (UniProt Q9HAF1)
inactive: [1] -0.078 | volasertib 0.075 | [2] 0.032 | epoxomicin -0.071 | [3] 0.006 | [4] 0.022 | [5] -0.065 | rosiglitazone -0.084 | [6] 0.051 | [7] -0.006 | saracatinib 0 | sotrastaurin 0.251 | alvocidib 0.07 | Tubastatin A 0.049 | [8] -0.002 | defactinib 0.027 | rucaparib 0.089 | [9] -0.108 | encorafenib -0.017 | [10] 0.041

Retrieved one by one from the entries so far (2):
MFSD14B (UniProt Q5SR56)
inactive: [1] -0.063 | volasertib -0.282 | [2] 0.041 | epoxomicin -0.017 | [3] 0.016 | [5] 0.099 | [6] -0.036 | saracatinib -0.015 | sotrastaurin 0.074 | alvocidib -0.007 | Tubastatin A 0.076 | [8] 0.036 | defactinib -0.17 | rucaparib 0.103 | [9] -0.131 | encorafenib -0.04 | [10] 0.11

MDH1 isoform 3 (UniProt P40925)
inactive: [1] -0.015 | volasertib 0.023 | [2] -0.024 | epoxomicin 0.037 | [3] 0.03 | [4] -0.008 | [5] -0.013 | rosiglitazone 0.014 | [6] -0.087 | [7] -0.018 | saracatinib 0.028 | sotrastaurin 0 | alvocidib -0.009 | Tubastatin A -0.036 | [8] 0.116 | defactinib -0.02 | rucaparib -0.085 | [9] -0.016 | encorafenib -0.019 | [10] 0

Additional entries follow.

MGST1 (UniProt P10620)
inactive: [1] 0.037 | volasertib 0.039 | [2] -0.043 | epoxomicin 0.003 | [4] -0.158 | [5] 0.012 | [6] -0.079 | [7] 0.086 | saracatinib 0.042 | sotrastaurin -0.013 | Tubastatin A -0.174 | [8] 0.009 | defactinib -0.037 | rucaparib 0.003 | [9] 0.021 | encorafenib -0.147 | [10] 0.018

MED19 (UniProt A0JLT2)
inactive: [1] 0.133 | [2] 0.042 | epoxomicin -0.086 | [4] -0.119 | [5] 0.086 | rosiglitazone 0.006 | [7] -0.134 | sotrastaurin -0.014 | defactinib 0.069 | rucaparib 0.209 | encorafenib 0.042 | [10] -0.15

MFN2 (UniProt O95140)
inactive: [1] -0.1 | volasertib -0.23 | [2] 0.011 | epoxomicin 0.047 | [4] 0.011 | [5] 0.009 | [6] -0.011 | [7] -0.213 | saracatinib -0.005 | sotrastaurin 0.045 | Tubastatin A 0.02 | [8] -0.024 | defactinib -0.066 | rucaparib 0.041 | [9] 0.058 | encorafenib -0.006 | [10] -0.026

MFN1 (UniProt Q8IWA4)
active: [7] -0.295
inactive: [1] -0.099 | volasertib -0.136 | [2] -0.056 | epoxomicin 0.079 | [4] -0.024 | [5] -0.025 | [6] -0.045 | saracatinib -0.029 | sotrastaurin 0.016 | Tubastatin A 0.025 | [8] -0.019 | defactinib -0.074 | rucaparib -0.015 | [9] 0.023 | encorafenib 0.038 | [10] 0

METTL17 isoform 3 (UniProt Q9H7H0)
inactive: [1] 0.068 | volasertib 0.03 | sotrastaurin -0.055 | alvocidib 0.038 | rucaparib 0.05 | encorafenib -0.044
